The assay addresses Human C1q (human) (UniProt P02745+P02746+P02747). Nature of the assay: pull-down; Human serum or C1q-depleted serum (99% depletion) diluted 1:3 in 20 mM phosphate pH 7.4, 0.075 M NaCl, 10 mM EDTA passed over CS-A-Sepharose or control Sepharose; eluted with 1.0 M NaCl; eluate analysed by reducing SDS-PAGE and Western blot. (A western blot detects proteins with antibodies after separation by electrophoresis.)

By UniProt entry, the sequences of proteins in these tests, tags left out. Where a name states a change or a piece, a line headed by the entry shows the natural chain unless it says otherwise.
UniProt P02745: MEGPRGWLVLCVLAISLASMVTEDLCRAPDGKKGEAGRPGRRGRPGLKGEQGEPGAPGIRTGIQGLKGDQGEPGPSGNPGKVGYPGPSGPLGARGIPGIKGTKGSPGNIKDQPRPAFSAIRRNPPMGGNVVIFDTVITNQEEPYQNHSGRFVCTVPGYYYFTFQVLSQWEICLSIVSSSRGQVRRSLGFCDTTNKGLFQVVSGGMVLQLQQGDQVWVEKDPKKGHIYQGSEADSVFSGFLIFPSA
UniProt P02746: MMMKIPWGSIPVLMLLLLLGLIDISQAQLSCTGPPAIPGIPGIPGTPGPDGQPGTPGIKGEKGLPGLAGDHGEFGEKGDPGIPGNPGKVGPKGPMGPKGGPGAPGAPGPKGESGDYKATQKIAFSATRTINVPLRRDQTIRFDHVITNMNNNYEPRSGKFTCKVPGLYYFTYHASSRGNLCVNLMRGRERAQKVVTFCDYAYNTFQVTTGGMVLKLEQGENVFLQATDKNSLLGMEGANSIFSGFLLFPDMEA
UniProt P02747: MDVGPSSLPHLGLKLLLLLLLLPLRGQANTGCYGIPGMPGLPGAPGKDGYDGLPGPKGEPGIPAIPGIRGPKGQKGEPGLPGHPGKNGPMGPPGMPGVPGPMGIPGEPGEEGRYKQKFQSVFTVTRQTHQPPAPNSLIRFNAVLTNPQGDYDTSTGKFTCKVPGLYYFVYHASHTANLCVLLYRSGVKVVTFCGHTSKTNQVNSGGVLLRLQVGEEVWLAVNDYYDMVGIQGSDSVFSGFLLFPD

No constants are given. Whether binding was seen depends on the method and setting. In cells and extracts the contact can be indirect. Some results given as binding are weak or reduced against the parent protein; the word gives no strength.

B1: C1 inhibitor (protein, UniProt P05155 23-500)
chain: NPNATSSSSQDPESLQDRGEGKVATTVISKMLFVEPILEVSSLPTTNSTTNSATKITANTTDEPTTQPTTEPTTQPTIQPTQPTTQLPTDSPTQPTTGSFCPGPVTLCSDLESHSTEAVLGDALVDFSLKLYHAFSAMKKVETNMAFSPFSIASLLTQVLLGAGENTKTNLESILSYPKDFTCVHQALKGFTTKGVTSVSQIFHSPDLAIRDTFVNASRTLYSSSPRVLSNNSDANLELINTWVAKNTNNKISRLLDSLPSDTRLVLLNAIYLSAKWKTTFDPKKTRMEPFHFKNSVIKVPMMNSKKYPVAHFIDQTLKAKVGQLQLSHNLSLVILVPQNLKHRLEDMEQALSPSVFKAIMEKLEMSKFQPTLLTLPRIKVTTSQDMLSIMEKLEFFDFSYDLNLCGLTEDPDLQVSAMQHQTVLELTETGVEAAAASAISVARTLLVFEVQQPFLFVLWDQQHKFPVFMGRVYDPRA
For the molecule B1, the binding result was “binds”.

(Values after publication PMC2944812.)
